Experimental data taken from paper PMC3416805.
These are yes or no findings as the source states them, for the method shown. In cells and extracts the contact can be indirect. Binding can be weak; no strength is given.

The chains behind the UniProt entries cited, without tags or fusion partners. Where a name states a change or a piece, a line headed by the entry shows the natural chain unless it says otherwise.
UniProt Q08655: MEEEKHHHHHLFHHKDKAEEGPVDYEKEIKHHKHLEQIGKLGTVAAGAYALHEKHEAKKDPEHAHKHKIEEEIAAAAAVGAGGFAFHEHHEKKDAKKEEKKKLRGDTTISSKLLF

Target: ASR1:GUS:vNLS:cVenus (tomato) (UniProt Q08655)
Experiment: split reporter; BiFC with split Venus; ASR1, ASR1:GUS and ASR1:GUS:vNLS fusions co-expressed in N. benthamiana leaves, confocal microscopy with DAPI staining

- binding: binds
Substance: ASR1:GUS fused to the amino-terminal half of Venus (from UniProt Q08655)
